The values below come from PubChem BioAssay AID314 (DTP/NCI, 2004).

The experiment has as its system DBA/2 mice, P1534 leukemia ip, survival T/C. The experiment can be described thus: NCI In Vivo Anticancer Drug Screen. Data for tumor model P1534 Leukemia (intraperitoneal) in DBA/2 mice. The note with it: T/C endpoint: mean survival time, higher T/C = longer survival. On the procedure: The antitumor activity of compounds was measured in mice bearing transplantable tumors. Survival or tumor size were measured and the results are expressed as the measurement made in the treated group (T) divided by the measurement made in the vehicle treated control group (C). The tumor model used in this assay is P1534 Leukemia (intraperitoneal) in DBA/2 mice

Setting [1] is: dose: 6.0 mg/kg/injection, schedule: Q01DX010 (ip), vehicle: saline.
Setting [2] is: dose: 8.0 mg/kg/injection, schedule: Q01DX010 (ip), vehicle: saline.
[3] abbreviates: dose: 4.0 mg/kg/injection, schedule: Q01DX010 (ip), vehicle: saline.
Where [4] appears, read: dose: 12.5 mg/kg/injection, schedule: Q01DX010 (ip), vehicle: saline.
Where [5] appears, read: dose: 25.0 mg/kg/injection, schedule: Q01DX010 (ip), vehicle: saline.
Where [6] appears, read: dose: 50.0 mg/kg/injection, schedule: Q01DX010 (ip), vehicle: saline.
Where [7] appears, read: dose: 100.0 mg/kg/injection, schedule: Q01DX010 (ip), vehicle: saline.
The mark [8] stands for this setting: dose: 250.0 mg/kg/injection, schedule: Q01DX010 (ip), vehicle: saline.
Where [9] appears, read: dose: 64.0 mg/kg/injection, schedule: Q01DX010 (ip), vehicle: saline.
Setting [10] is: dose: 4.4 mg/kg/injection, schedule: Q## X001 (ip), vehicle: saline.
Where [11] appears, read: dose: 6.5 mg/kg/injection, schedule: Q## X001 (ip), vehicle: saline.
Setting [12] is: dose: 400.0 mg/kg/injection, schedule: Q01DX010 (ip), vehicle: saline.
The mark [13] stands for this setting: dose: 2.0 mg/kg/injection, schedule: Q01DX010 (ip), vehicle: saline.
[14] abbreviates: dose: 125.0 mg/kg/injection, schedule: Q01DX010 (ip), vehicle: saline.
The mark [15] stands for this setting: dose: 500.0 mg/kg/injection, schedule: Q01DX010 (ip), vehicle: saline.
The mark [16] stands for this setting: dose: 62.5 mg/kg/injection, schedule: Q01DX010 (ip), vehicle: saline.

Each structure is given as a SMILES string. The list is a part of this screen's results and no random one: it gathers tests that were run many times, whatever their T/C, doses with no T/C, and many T/C values between a quarter and a half above the control. Further doses and runs are listed elsewhere. T/C gives the treated animals as a percentage of the vehicle group. Some entries give survivors of the animals treated and no T/C: the source holds a T/C of zero for them, seemingly a mark for toxic or unscored doses. Some survivor counts are full or nearly so, which does not show that the dose was tolerated: the source hardly ever lists a survival T/C far under the control, and the zero likely stands for such cases as well. Counts of survivors are from the toxicity check (mostly the fifth day) where no day follows; animals may have died later. Schedules are NCI's codes, taken here to give the interval after Q, in days (D) or hours (H), and the number of doses after X. Some doses were run more than once; the values are given in rising order. Some schedules carry Z or #; the key to these is not given. Where survival is the endpoint, the PubChem record calls one and a half times the control and up active, and a quarter to a half above the control has no call in these data; cut-offs in other NCI protocols can differ. Some T/C values carry the count of animals alive at the toxicity check (mostly the fifth day); where none is given, no animal had died by that day. Signs of the kind (2×) count equal records among those shown.

As to `C=CC(CN1CC1)OC(C)=O` (stereo unspecified), the survivor count is given as 3 of 6 under setting [1]; 2 of 6 under setting [2]; 0 of 6 (dose: 12.0 mg/kg/injection, schedule: Q01DX010 (ip), vehicle: saline); 0 of 6 (dose: 18.0 mg/kg/injection, schedule: Q01DX010 (ip), vehicle: saline).
On to `NC(=O)N(CCCl)N=O`, for which the survivor count under setting [3] is 5 of 6.
For `CCc1c(CC(=O)O)c2cc(C)ccc2n1Cc1ccc(Cl)cc1`, the survivor count runs as follows: under setting [4], 6 of 6; under setting [5], 6 of 6; under setting [6], 5 of 6; under setting [7], 4 of 6.
Consider `Cn1c(O)c(N=NC(N)=S)c2ccccc21`, for which, under setting [8], the survivor count is recorded as 5 of 6.
Take `CCNNC(=O)[C@@H]1[C@H](c2cc(OC)c(OC)c(OC)c2)c2cc3c(cc2[C@H](O)[C@H]1CO)OCO3`: the survivor count by setting is: (dose: 32.0 mg/kg/injection, schedule: Q01DX010 (ip), vehicle: saline) 6 of 6; under setting [9], 5 of 6 and 6 of 6.
Consider `COC12C(COC(N)=O)C3=C(C(=O)C(C)=C(N)C3=O)N1CC1C2N1C` (stereo unspecified), for which the survivor count (dose: 20.0 mg/kg/injection, schedule: Q01DX010 (sc), vehicle: saline) is 6 of 6.
Consider `CC[C@]1(O)C[C@H]2CN(CCc3c([nH]c4ccccc34)[C@@](C(=O)OC)(c3cc4c(cc3OC)N(C=O)[C@H]3[C@@](O)(C(=O)OC)[C@H](OC(C)=O)[C@]5(CC)C=CCN6CC[C@]43[C@@H]65)C2)C1`, for which the T/C is 140, 152, 153, 155 [9 of 10 alive], 160, 161, 162, 165, 170, 211, 230, 238, 252, 254 % of control (2×) (dose: 1.3 mg/kg/injection, schedule: Q## X001 (ip), vehicle: saline); 129, 138, 142, 145, 156, 159, 163 [9 of 10 alive], 209, 212, 223 [9 of 10 alive], 225 (2×), 241 [8 of 9 alive], 254 [9 of 10 alive], 271 % of control (dose: 1.9 mg/kg/injection, schedule: Q## X001 (ip), vehicle: saline); 111 [9 of 10 alive], 121, 137 [9 of 10 alive], 140, 148 [9 of 10 alive], 166, 166 [9 of 10 alive] (2×), 207, 211, 221 [6 of 9 alive], 241 (2×), 245 [9 of 10 alive], 254 % of control [8 of 10 alive] (dose: 2.9 mg/kg/injection, schedule: Q## X001 (ip), vehicle: saline); 89 [9 of 10 alive], 92 [9 of 10 alive], 94 [7 of 10 alive], 115 [9 of 10 alive], 119 [6 of 9 alive], 120, 125 [9 of 10 alive], 144 [9 of 10 alive], 148, 154 [9 of 10 alive], 169 [8 of 10 alive], 169 [9 of 10 alive], 175, 207 % of control [8 of 10 alive] under setting [10]; 91 [8 of 10 alive], 92 [8 of 10 alive], 100 [9 of 10 alive], 108, 113 [9 of 10 alive], 130 [9 of 10 alive], 162 [8 of 10 alive], 169 % of control [7 of 9 alive] under setting [11]; 128 % of control (dose: 62.5 micrograms/kg/injection, schedule: Q01DX010 (ip), vehicle: saline). The T/C (dose: 125.0 micrograms/kg/injection, schedule: Q01DX010 (ip), vehicle: saline) was 132 % of control. For the same compound, the survivor count runs as follows: under setting [10], 5 of 10; under setting [11], 2 of 10, 4 of 10, 5 of 10, 6 of 10, 7 of 10, 8 of 10.
Turning to `COC1C(OC(N)=O)C(O)C(Oc2ccc3c(O)c(NC(=O)c4ccc(O)c(CC=C(C)C)c4)c(=O)oc3c2C)OC1(C)C` (stereo unspecified), under setting [12], the survivor count was 0 of 6.
Regarding `N[C@@H](Cc1ccc(N(CCCl)CCCl)cc1)C(=O)O`, the survivor count (dose: 0.5 mg/kg/injection, schedule: Q01DX010 (ip), vehicle: other) is on record as 6 of 6; the survivor count (dose: 2.0 mg/kg/injection, schedule: Q01DX010 (ip), vehicle: other) was 5 of 6; the survivor count (dose: 4.0 mg/kg/injection, schedule: Q01DX010 (ip), vehicle: other) is recorded as 3 of 6; the survivor count under setting [3] is 5 of 6 and 6 of 6. For the same compound, the T/C under setting [13] was 130 % of control.
With `NC(=O)c1ccc(N)nc1`, the survivor count (dose: 0.75 mg/kg/injection, schedule: Q01DX010 (ip), vehicle: saline) was 3 of 6 and the survivor count under setting [1] is reported as 5 of 6. For the same compound, under “dose: 1.5 mg/kg/injection, schedule: Q01DX010 (ip), vehicle: saline”, the T/C is 126 % of control.
Turning to `Nc1ncccc1C(=O)O`, the survivor count under setting [14] is 4 of 6, the survivor count under setting [8] is reported as 6 of 6 and the survivor count under setting [15] is recorded as 5 of 6.
In the case of `Cc1cc(N(CCCl)CCCl)ccc1N=Nc1ccccc1C(=O)O`, the T/C (dose: 10.0 mg/kg/injection, schedule: Q01DX010 (ip), vehicle: saline) was 134 % of control. Also, the survivor count (dose: 40.0 mg/kg/injection, schedule: Q01DX010 (ip), vehicle: saline) was 6 of 6.
`CN(N=O)C(=O)NC(C=O)C(O)C(O)C(O)CO` (stereo unspecified): the T/C (dose: 60.0 mg/kg/injection, schedule: Q01DX010 (ip), vehicle: saline) was 127 % of control.
Consider `CS(=O)(=O)OCCCl`, for which the survivor count (dose: 18.8 mg/kg/injection, schedule: Q01DX010 (ip), vehicle: saline) was 6 of 6; the survivor count (dose: 37.5 mg/kg/injection, schedule: Q01DX010 (ip), vehicle: saline) is recorded as 6 of 6; the survivor count (dose: 75.0 mg/kg/injection, schedule: Q01DX010 (ip), vehicle: saline) was 6 of 6; the survivor count (dose: 150.0 mg/kg/injection, schedule: Q01DX010 (ip), vehicle: saline) was 3 of 6 and 4 of 6.
Regarding `CN(C)/N=N/c1nc[nH]c1C(N)=O`, the survivor count (dose: 200.0 mg/kg/injection, schedule: Q01DX010 (ip), vehicle: saline) is on record as 5 of 6.
`C[C@]12CC[C@H](OC3OC(CO)C(O)C(O)C3O)C[C@H]1CC[C@@H]1[C@@H]2CC[C@]2(C)[C@@H](C3=CCOC3=O)CC[C@]12O` (stereo partly specified): the survivor count is 5 of 6 under setting [13] and 2 of 6 under setting [3].
Regarding `O=C(OCC1OC(n2cnc3c(=S)nc[nH]c32)C(OC(=O)c2ccccc2)C1OC(=O)c1ccccc1)c1ccccc1` (stereo unspecified), the survivor count by setting is: under setting [16], 4 of 6; under setting [15], 5 of 6.
In the case of `Cn1cnc([N+](=O)[O-])c1Sc1ncnc2nc[nH]c12`, the survivor count is, setting by setting: under setting [5], 6 of 6; under setting [6], 5 of 6; under setting [7], 6 of 6.
Consider `COC(=O)c1[nH]c(=O)[nH]c(=O)c1F`, for which the survivor count is reported as 6 of 6 under setting [13] and 5 of 6 under setting [2].
For `Nc1nc(SCc2ccccc2)c2[nH]cnc2n1`, the survivor count is, setting by setting: under setting [16], 6 of 6; under setting [9], 6 of 6; under setting [14], 6 of 6; under setting [8], 6 of 6.
Take `N#Cc1cn(C2OC(CO)C(O)C2O)c2ncnc(N)c12` (stereo unspecified): the survivor count runs as follows: (dose: 0.25 mg/kg/injection, schedule: Q01DX010 (ip), vehicle: saline) 6 of 6; (dose: 0.5 mg/kg/injection, schedule: Q01DX010 (ip), vehicle: saline) 6 of 6; (dose: 1.0 mg/kg/injection, schedule: Q01DX010 (ip), vehicle: saline) 5 of 6; under setting [13], 0 of 6.
Turning to `O=c1[nH]c(=O)n(C2CC(O)C(CO)O2)cc1Br` (stereo unspecified), the survivor count under setting [15] is 6 of 6.
Turning to `[N-]=[N+]=CC(=O)NCC(=O)NN`, the survivor count is listed as 6 of 6 under setting [12]; 5 of 6 (dose: 800.0 mg/kg/injection, schedule: Q01DX010 (ip), vehicle: saline); 0 of 6 (dose: 1200.0 mg/kg/injection, schedule: Q01DX010 (ip), vehicle: saline); 0 of 6 (dose: 1600.0 mg/kg/injection, schedule: Q01DX010 (ip), vehicle: saline).
For `O=NN(CCCl)C(=O)NCCCl`, the survivor count was 6 of 6 (dose: 6.25 mg/kg/injection, schedule: Q01DX010 (ip), vehicle: saline); 5 of 6 and 6 of 6 under setting [4].
